Source: PMC8292527
Results are given in words; binding and its absence hold for the method and conditions named. Binding seen in cells or lysates may run through a third protein. A yes stands for co-enrichment or nearness to the bait. Other partners may have been found.

By UniProt entry, the sequences of proteins in these tests, tags left out. Residues count along the entry.
UniProt Q9H6X2, residues 33-564: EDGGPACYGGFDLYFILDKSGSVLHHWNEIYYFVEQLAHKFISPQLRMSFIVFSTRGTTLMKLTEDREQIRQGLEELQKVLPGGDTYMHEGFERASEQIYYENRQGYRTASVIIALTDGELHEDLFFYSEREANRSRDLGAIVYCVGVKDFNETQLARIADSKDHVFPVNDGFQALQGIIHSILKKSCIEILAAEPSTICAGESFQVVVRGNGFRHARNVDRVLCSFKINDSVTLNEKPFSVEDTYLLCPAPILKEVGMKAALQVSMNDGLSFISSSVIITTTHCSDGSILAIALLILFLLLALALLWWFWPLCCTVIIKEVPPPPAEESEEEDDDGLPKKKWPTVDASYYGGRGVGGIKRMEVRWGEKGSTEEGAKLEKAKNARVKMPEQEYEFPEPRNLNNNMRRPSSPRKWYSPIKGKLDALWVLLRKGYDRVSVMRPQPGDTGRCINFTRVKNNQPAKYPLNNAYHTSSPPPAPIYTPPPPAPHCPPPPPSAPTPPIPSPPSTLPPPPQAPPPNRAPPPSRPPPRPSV
UniProt P63092: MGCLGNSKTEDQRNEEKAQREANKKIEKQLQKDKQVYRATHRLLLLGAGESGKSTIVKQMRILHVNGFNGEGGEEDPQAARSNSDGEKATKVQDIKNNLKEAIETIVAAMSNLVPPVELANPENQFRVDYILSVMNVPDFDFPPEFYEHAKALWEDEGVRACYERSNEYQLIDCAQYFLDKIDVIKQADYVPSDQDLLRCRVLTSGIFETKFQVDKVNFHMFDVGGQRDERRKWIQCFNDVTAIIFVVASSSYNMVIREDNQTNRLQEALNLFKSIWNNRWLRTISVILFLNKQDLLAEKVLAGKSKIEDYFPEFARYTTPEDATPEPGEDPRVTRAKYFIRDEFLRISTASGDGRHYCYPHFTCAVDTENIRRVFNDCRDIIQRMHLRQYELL

Target: FLAG-tagged full length TEM8 (tumor endothelial marker 8) (human) (UniProt Q9H6X2)
Assay: affinity purification with mass spectrometry; FLAG-beads IP from MDA-MB-231-TEM8 and SUM159-TEM8 cells against ctrl cells, cells treated with MG132 (20 uM, 2 h); on-bead trypsin digest, Orbitrap Elite, Maxquant; hits: LFQ intensity >10^6 in TEM8 groups and 0 in ctrl

binding: binds
Substance: guanine nucleotide-binding protein G(s) subunit alpha isoforms short (GNAS), endogenous (from UniProt P63092 1-394)
